{"source": "PubChem BioAssay AID1508587 (Peter MacCallum Cancer Centre, 2020)", "purpose": "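Follow-up of vemurafenib sensitisers scored by lactate made per cell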 (follow-up of hits)", "cell system": "human WM266.4 melanoma cells with a BRAF V600 mutation", "knock-down reagent": "single siRNA against human genes, 25 nM", "time to read-out": "96 h", "challenge": "vemurafenib 300 nM (about IC25), given 48 h after transfection for 48 h", "detection": "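Per-cell lactate from absorbance divided by DAPI nucleus counts, compared with and without vemurafenib, relative to non-targeting siRNA, mean of 2 replicates; nuclear counts also give cell number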", "direction": "lactate per cell, drug vs no drug: higher = less drug-induced drop in lactate per cell; lactate per cell with vemurafenib: higher = more lactate per cell under drug", "active means": "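a duplex is active when its lactate-per-cell ratio with versus without drug falls under 0.55, i.e. 2 SD below non-targeting; a gene is confirmed if 2 or more of 4 duplexes pass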", "note": "The deposit covers about 1,600 reagents; below is a random part of them. 623 of them (39%) were called active. 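Calls are for each duplex; lactate ratios contain extreme outliers.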 Reagents against one gene are numbered here. Not all columns of the deposit are shown. No sequences are given here."}
{"gene knocked down":"NFASC","siRNA no.":1,"lactate per cell, drug vs no drug":0.63,"lactate per cell with vemurafenib":0.99,"outcome":"inactive"}
{"gene knocked down":"NFASC","siRNA no.":2,"lactate per cell, drug vs no drug":0.4,"lactate per cell with vemurafenib":1.78,"outcome":"active"}
{"gene knocked down":"NFASC","siRNA no.":3,"lactate per cell, drug vs no drug":0.33,"lactate per cell with vemurafenib":0.46,"outcome":"active"}
{"gene knocked down":"NFASC","siRNA no.":4,"lactate per cell, drug vs no drug":0.35,"lactate per cell with vemurafenib":1.03,"outcome":"active"}
{"gene knocked down":"TRAM1","siRNA no.":1,"lactate per cell, drug vs no drug":0.59,"lactate per cell with vemurafenib":1.68,"outcome":"inactive"}
{"gene knocked down":"TRAM1","siRNA no.":2,"lactate per cell, drug vs no drug":0.66,"lactate per cell with vemurafenib":1.31,"outcome":"inactive"}
{"gene knocked down":"TRAM1","siRNA no.":3,"lactate per cell, drug vs no drug":0.46,"lactate per cell with vemurafenib":0.94,"outcome":"active"}
{"gene knocked down":"TRAM1","siRNA no.":4,"lactate per cell, drug vs no drug":0.39,"lactate per cell with vemurafenib":0.4,"outcome":"active"}
{"gene knocked down":"SOCS4","siRNA no.":1,"lactate per cell, drug vs no drug":0.5,"lactate per cell with vemurafenib":0.95,"outcome":"active"}
{"gene knocked down":"SOCS4","siRNA no.":2,"lactate per cell, drug vs no drug":0.55,"lactate per cell with vemurafenib":1.36,"outcome":"inactive"}
{"gene knocked down":"SOCS4","siRNA no.":3,"lactate per cell, drug vs no drug":0.51,"lactate per cell with vemurafenib":1.26,"outcome":"active"}
{"gene knocked down":"SOCS4","siRNA no.":4,"lactate per cell, drug vs no drug":0.59,"lactate per cell with vemurafenib":1.11,"outcome":"inactive"}
